Data from US8969026B2, “Polymeric reverse micelles as selective extraction agents and related methods of MALDI-MS analysis” (University of Massachusetts, priority 2007, dated 2015).
Some compounds share one wording; it may come from a single statement.

Assay: Inverse micelle (polymer 1) extraction of a myoglobin tryptic digest at pH 7.1, MALDI-MS
Format: physicochemical
Excerpt: All of the peptides with pI values above 7.1 are extracted effectively, and with only one exception, peptides with pI values below 7.1 are not extracted effectively. Among the peptide fragments tested, the only exception is the peptide N140-G153 (m/z 1553), a peptide fragment that has a pI below 7.1 and still has K>1. […] One of two reasons could explain the observed results: First, because the pH of the solution is so close to the pI of this peptide, a significant fraction of the peptide is positively-charged at pH 7.1 and therefore extracted. Alternatively, the theoretically calculated pI value may be low.
A typical biphasic extraction procedure involves mixing 200 μL of a toluene solution of homopolymer 1 or 2 (1×10^−4 M) with 1 mL of an aqueous solution of peptide(s) that was buffered to pH ˜7.0 with 50 mM Tris/TrisHCl. The mixture is vortexed for 10 to 120 minutes and centrifuged at 12000 rpm for 30-40 minutes to break the resulting emulsion and separate the organic and aqueous layers. The top (organic) layer is then recovered and dried to obtain a solid residue. The residue is redissolved into 10 μL of THF and sonicated for 10 seconds to promote solubilization. Finally, 20 μL of an α-CHCA matrix solution (0.16 Min 60:40:0.3% THF:H2O:TFA) are added to the sample for a final volume of 30 μL. For MALDI-MS analysis the samples are applied to the target using the dried-droplet method, where 1 μL of the sample/matrix mixture is spotted on a stainless-steel target, and the solvent is evaporated at room temperature. The residual aqueous phase (˜1 mL) after extraction is also examined by MALDI-MS. […]
Extraction of the myoglobin digest was done in a manner similar to described above. 1 mL aliquots of a 1×10^−6 M protein digest were buffered at pH 7.1 with 50 mM TRIS, mixed with 200 μL of a toluene solution of homopolymer 1 (1×10^−4 M), extracted, and analyzed by MALDI-MS as detailed above. […]

Sequence	detection of the fragment in the organic phase after extraction versus the original digest
ALELFRNDIAAKYK (ALELFRNDLAAKYK; listed as Equus caballus) [tryptic fragment of equine myoglobin]	after extraction they are readily observable
KHGTVVLTALGGILKK (listed as Equus caballus) [tryptic fragment of equine myoglobin]	after extraction they are readily observable
HGTVVLTALGGILKKK (listed as Equus caballus) [tryptic fragment of equine myoglobin]	after extraction they are readily observable
